Experimental data as given in paper PMC6329143.
No constants are given. Whether binding was seen depends on the method and setting. In cells and extracts the contact can be indirect. Some entries that bind do so weakly or less than the wild type. Tags and fused reporters may be left off the sequences shown.

Amino acid sequences for entries named in this document (tags omitted).
UniProt P15056: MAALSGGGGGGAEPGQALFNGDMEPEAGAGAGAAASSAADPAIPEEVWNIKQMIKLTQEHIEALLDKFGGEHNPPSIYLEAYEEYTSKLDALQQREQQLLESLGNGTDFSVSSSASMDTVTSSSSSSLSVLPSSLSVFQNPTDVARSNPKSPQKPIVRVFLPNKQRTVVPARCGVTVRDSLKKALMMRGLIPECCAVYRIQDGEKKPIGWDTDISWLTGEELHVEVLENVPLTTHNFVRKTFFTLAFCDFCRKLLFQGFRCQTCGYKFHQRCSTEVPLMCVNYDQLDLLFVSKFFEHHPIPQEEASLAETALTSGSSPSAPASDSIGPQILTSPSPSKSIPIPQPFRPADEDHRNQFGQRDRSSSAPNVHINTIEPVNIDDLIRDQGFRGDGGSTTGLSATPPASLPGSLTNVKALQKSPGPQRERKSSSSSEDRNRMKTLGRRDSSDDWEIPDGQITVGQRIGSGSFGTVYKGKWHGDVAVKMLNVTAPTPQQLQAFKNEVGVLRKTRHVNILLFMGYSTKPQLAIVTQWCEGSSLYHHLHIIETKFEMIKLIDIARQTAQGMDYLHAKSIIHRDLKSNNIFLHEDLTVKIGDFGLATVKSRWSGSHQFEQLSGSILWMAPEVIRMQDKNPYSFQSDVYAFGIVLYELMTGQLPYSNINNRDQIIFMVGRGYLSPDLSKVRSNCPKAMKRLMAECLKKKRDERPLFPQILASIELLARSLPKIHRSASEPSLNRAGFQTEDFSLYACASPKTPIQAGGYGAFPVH

Target: T1, Heme oxygenase 1 (HA-HO-1) (UniProt P09601)
T1 sequence: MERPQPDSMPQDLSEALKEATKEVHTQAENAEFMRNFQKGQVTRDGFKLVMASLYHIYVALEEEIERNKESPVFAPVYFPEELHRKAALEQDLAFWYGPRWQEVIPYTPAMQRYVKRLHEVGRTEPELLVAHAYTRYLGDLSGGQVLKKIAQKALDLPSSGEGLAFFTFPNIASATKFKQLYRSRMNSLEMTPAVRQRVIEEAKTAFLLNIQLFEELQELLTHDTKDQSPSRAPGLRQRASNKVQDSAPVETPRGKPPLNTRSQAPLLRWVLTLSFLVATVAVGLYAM
Experiment: co-IP; Flag-B-Raf co-transfected with or without HA-HO-1 into HEK293T cells; immunoprecipitated with anti-HA antibody, immunoblotted with antibodies against HA and Flag

“B-Raf (Flag-B-Raf) (from UniProt P15056 1-766) (enzyme)” was tested, and the binding was “binds”.
